Measured values taken from patent publication US20090099072A1 (LES LABORATOIRES SERVIER, published 2009).
These are yes or no findings as the source states them, for the method shown. Some results given as binding are weak or reduced against the parent protein; the word gives no strength.

Chains of the proteins cited; added tags and fusions are not shown. Residues count along the entry.
UniProt Q07817, residues 1-209: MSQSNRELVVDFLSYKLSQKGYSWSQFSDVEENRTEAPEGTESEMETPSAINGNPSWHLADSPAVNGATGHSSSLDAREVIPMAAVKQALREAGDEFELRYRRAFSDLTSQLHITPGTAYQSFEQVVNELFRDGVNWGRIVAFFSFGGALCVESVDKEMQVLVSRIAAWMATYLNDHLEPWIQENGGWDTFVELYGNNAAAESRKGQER
UniProt P10415, residues 1-211: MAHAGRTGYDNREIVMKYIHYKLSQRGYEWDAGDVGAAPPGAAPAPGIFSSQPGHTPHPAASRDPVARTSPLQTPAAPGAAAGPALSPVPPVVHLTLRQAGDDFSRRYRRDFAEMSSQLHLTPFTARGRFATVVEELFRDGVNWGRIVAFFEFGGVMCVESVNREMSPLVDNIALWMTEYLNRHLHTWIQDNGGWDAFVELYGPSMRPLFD

How the values were obtained:
Experiment in all cases: fluorescence polarisation competition
Bcl-XL = target: T1, Bcl-XL (UniProt Q07817-1 1-209)
T1 construct: also called anti-apoptotic member of the Bcl-2 protein family

Bcl-2 = target: T2, Bcl-2 (UniProt P10415-1 1-211, limits assumed)
T2 construct: also called anti-apoptotic member of the Bcl-2 protein family

Bcl-W = target: T3, Bcl-W (UniProt Q92843-1 1-172, limits assumed)
T3 construct: also called anti-apoptotic member of the Bcl-2 protein family
T3 sequence (looked up): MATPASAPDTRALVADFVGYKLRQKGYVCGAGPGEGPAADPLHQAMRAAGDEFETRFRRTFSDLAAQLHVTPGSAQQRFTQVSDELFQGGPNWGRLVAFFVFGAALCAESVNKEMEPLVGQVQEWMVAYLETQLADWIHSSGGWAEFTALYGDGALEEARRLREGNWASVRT

Measured: binding

B1: Beclin peptide, motif GTMENLSRRLKVTGDLFDIMSGQTDV of the Beclin protein (peptide)
peptide: GTMENLSRRLKVTGDLFDIMSGQTDV
binds: all assays above
